According to patent publication US7592367B2, “Compounds from Garcinia hanburyi, their use in treating cancer and method of separating epimers thereof” (priority 2005, dated 2009):

Test system: doxorubicin-resistant K562 (K562/R) cell line
Assay: MTT cytotoxicity assay, doxorubicin-resistant K562
Type: cell-based, human
Conditions: concluded from similar IC50 against K562/R and K562/S
Method: MTT assay was performed using a reported method. […] Absorbance of untreated controls was taken as 100%. […] An aliquot of the supernatant was analyzed by HPLC.

Compound	Multidrug resistance (MDR) substrate status
CC(C)=CCCC1(C)C=Cc2c(O)c3c(c(CC=C(C)C)c2O1)OC12C(=CC4CC1C(C)(C)OC2(CC=C(C)C(=O)O)C4=O)C3=O (single isomer, unassigned; epimer 2) [Epimer 2, epigambogic acid]	not multidrug resistance (MDR) substrates
CC(C)=CCC[C@]1(C)C=Cc2c(O)c3c(c(CC=C(C)C)c2O1)O[C@]12C(=C[C@@H]4C[C@H]1C(C)(C)O[C@@]2(C/C=C(/C)C(=O)O)C4=O)C3=O (single isomer, unassigned) [Epimer 1, gambogic acid]	not multidrug resistance (MDR) substrates
